According to patent US20190016809A1 (MONASH UNIVERSITY, published 2019):
Results are given in words; binding and its absence hold for the method and conditions named. Some entries that bind do so weakly or less than the wild type.

Amino acid sequences for entries named in this document (tags omitted). Residues count along the entry.
UniProt P25025, residues 1-48: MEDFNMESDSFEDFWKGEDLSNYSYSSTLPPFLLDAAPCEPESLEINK

Experiments:
[1] = target: biotinylated peptide corresponding to the N-terminal region of human CXCR2 (human) (UniProt P25025); test: ELISA on biotinylated peptides
human CXCR2 (human) [2] = target: human CXCR2 (human) (UniProt P25025); test: flow cytometry, 1 ug purified antibody on transfected cells
human CXCR2 (human) [3] = target: human CXCR2 (human) (UniProt P25025); test: flow cytometry on CXCR2 expressing cells
human CXCR2 (human) [4] = target: human CXCR2 (human) (UniProt P25025); test: flow cytometry dose response on human CXCR2 L1.2 transfected cells

| Binder | binding [1] | binding (human CXCR2 (human) [2]) | binding (human CXCR2 (human) [3]) | binding (human CXCR2 (human) [4]) |
| --- | --- | --- | --- | --- |
| m3H9 (antibody, mouse IgG3, V domains shown, also called mouse 3H9; purified mouse 3H9 mAb) VH: QVQLQQSGPELVKPGASVKISCKASGYAFSNSWMNWVKQRPGKGLEWIGRIYPGDGNINYYGKFKDKATLTADKSSNTAYMQLSSLTSEDSAVYFCARSFLYVDFDYWGQGTTLTVSS VL: VIVMTQTPLSLPVSLGDQASISCRSSQSLVHSNGNTYLQWYLQKPGQSPKLLIYKVSNRFSGVPDRFSGSGSGTDFTLKISRVEAEDLGVYFCSQGTHVPYTFGGGTKLEIKR | binds | – | – | – |
| h3H9 (antibody, V domains shown) VH: QVQLVQSGAEVKKPGASVKVSCKASGYAFSNSWMNWVRQAPGQRLEWIGRIYPGDGNINYYGKFKDKATLTADKSANTAYMELSSLRSEDTAVYFCARSFLYVDFDYWGQGTTLTVSS VL: DIVMTQSPLSLPVTPGEPASISCRSSQSLVHSNGNTYLQWYLQKPGQSPQLLIYKVSNRFSGVPDRFSGSGSGTDFTLKISRVEAEDVGVYFCSQGTHVPYTFGQGTKLEIKR | – | binds | binds | binds |

The remaining lines, values ahead:

| binding [1] | binding (human CXCR2 (human) [2]) | binding (human CXCR2 (human) [3]) | binding (human CXCR2 (human) [4]) | Binder |
| --- | --- | --- | --- | --- |
| binds | – | – | – | m6G7 (antibody, V domains shown, Mouse hybridoma monoclonal antibody) VH: QVQLQQSGPELVKPGASVKISCKASGYAFSNSWMNWVKQRPGKGLEWIGRIYPGDGNINYYGKFKDKATLTADKSSNTAYMQLSSLTSEDSAVYFCARSFLYVDFDYWGQGTTLTVSS VL: DVVMTQAPLSLPVSLGDQASISCRSSQTLVHSNGNTYLQWYLQKPGQSPKLLIYKVSNRFSGVPDRFSGSGSGTDFTLKISRVEAEDLGVYFCSQGTHVPYTFGGGTKLEIKR |
| binds | – | – | – | mCM2 (antibody, V domains shown, Mouse hybridoma monoclonal antibody) VH: QVQLQQSGPELVKPGASVKISCKASGYAFSNSWMNWVKQRPGKGLEWIGRIYPGDGNINYYGKFKDKATLTADKSSNTAYMQLSSLTSEDSAVYFCARSFLYVYFDYWGQGTTLTVSS VL: DAVMTQTPLSLPVSLGDQASISCRSSQSLVHSNGNTYLQWYLQKPGQSPKLLIYKLSNRFSGVPDRFSGSGAGTDFTLKISRVEAEDLGVYFCSQSTHVPYTFGGGTKLEIKR |
